Earlier results, collected in patent US5932733A, “3-amino-2-oxo-1-piperidineacetic derivatives containing an arginine mimic as enzyme inhibitors” (Corvas International, Inc., priority 1995, dated 1999).
At least one structure is not confirmed: it was looked up by name or label, or the drawing left a doubt.

System: thrombin
Details: Ohno et al. 1980; cited from earlier work

CCOC(=O)c1ccc(OC(=O)CCCCCNC(=N)N)cc1 [FOY, [Ethyl p-(6-guanidinohexanoyloxy) benzoate] methane sulfonate]
thrombin inhibition: non-selective competitive inhibitor of thrombin
